Results deposited as PubChem BioAssay AID1159578 (Peter MacCallum Cancer Centre, 2015)
In all, the deposit lists about 18,000 reagents; this is a random part of them. About 1,030 of them (5.7%) were called active. 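Inactive calls also include pools with fewer than 3300 nuclei, whose migration was not assessed.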 Raw values vary from plate to plate and are shown uncorrected. Entries without a mark were called inactive.

Aim: 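Genome-wide hunt for genes controlling movement of lymphatic endothelial cells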 (primary screen)
System: human lymphatic endothelial cells
Reagents: siRNA pool against human genes, 40 nM
Duration: 48 h after transfection
Detection: 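Cells stained with dye and imaged after a scratch; covered wound area and nuclei counted, duplicates averaged, migration set against mock wells and turned into a robust z-score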
Direction: migration robust z-score: higher = faster migration into the scratch; migration relative to mock: higher = more scratch area covered than mock; nuclei per well: higher = more cells in the well
Hit rule: 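Migration changed when robust z exceeds 2 or falls below -2 and mean nuclei number is at least 3300; otherwise not called changed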
Meaning of the calls: active = migration changed; inactive = no migration change, or too few cells

no.	gene	migration robust z-score	migration class with cell-count check	migration relative to mock	nuclei per well, duplicate mean
1	UBD (ubiquitin like modifier D)	-0.31	migration z between -2 and 2; enough cells	0.74	6124
2	RRH (retinal pigment epithelium-derived rhodopsin homolog)	1.46	migration z between -2 and 2; enough cells	1.08	8516
3	PI3 (peptidase inhibitor 3)	-1.56	migration z between -2 and 2; enough cells	0.48	4632
4	NLRP6 (NLR family pyrin domain containing 6)	0.77	migration z between -2 and 2; enough cells	1.08	5177
5	DMGDH (dimethylglycine dehydrogenase)	0.18	migration z between -2 and 2; enough cells	0.84	5434
6	UBA52 (ubiquitin A-52 residue ribosomal protein fusion product 1)	-1.97	migration z between -2 and 2; enough cells	0.43	4213
7	LUZP2 (leucine zipper protein 2)	-0.19	migration z between -2 and 2; enough cells	0.84	6368
8	LRRN2 (leucine rich repeat neuronal 2)	-0.95	migration z between -2 and 2; enough cells	0.64	3982
9	GADL1 (GAD like acidic amino acid decarboxylase 1)	0.2	migration z between -2 and 2; enough cells	0.84	6274
10	CLTRN (collectrin, amino acid transport regulator)	-1.48	migration z between -2 and 2; enough cells	0.5	4528
11	WNT7B (Wnt family member 7B)	-1.77	migration z between -2 and 2; enough cells	0.42	3466
12	BRCA1 (BRCA1 DNA repair associated)	-0.44	migration z between -2 and 2; enough cells	0.72	4316
13	RDH12 (retinol dehydrogenase 12)	1.32	migration z between -2 and 2; enough cells	1.06	6392
14	GPR21 (G protein-coupled receptor 21)	0.39	migration z between -2 and 2; enough cells	0.88	5694
15	CDC42BPB (CDC42 binding protein kinase beta)	0.21	migration z between -2 and 2; enough cells	0.84	6032
16	CCDC102B (coiled-coil domain containing 102B)	-0.38	migration z between -2 and 2; enough cells	0.78	5008
17	CWC25 (CWC25 spliceosome associated protein)	0.48	migration z between -2 and 2; enough cells	1.01	5072
18	NIPAL1 (NIPA like domain containing 1)	-0.13	migration z between -2 and 2; enough cells	0.85	6173
19	INO80B (INO80 complex subunit B)	-1.48	migration z between -2 and 2; enough cells	0.5	5700
20	SOSTDC1 (sclerostin domain containing 1)	0.61	migration z between -2 and 2; enough cells	1.04	6554
21	ZNF70 (zinc finger protein 70)	0.82	migration z between -2 and 2; enough cells	1.1	5874
22	MRM2 (mitochondrial rRNA methyltransferase 2)	-0.83	migration z between -2 and 2; enough cells	0.64	6180
23	TRAF7 (TNF receptor associated factor 7)	0.62	migration z between -2 and 2; enough cells	0.92	6500
24	ACSL6 (acyl-CoA synthetase long chain family member 6)	0.42	migration z between -2 and 2; enough cells	0.88	5202

9 entries already listed, ordered by “nuclei per well, duplicate mean”, low to high:
gene	migration robust z-score	migration class with cell-count check	migration relative to mock	nuclei per well, duplicate mean
WNT7B (Wnt family member 7B)	-1.77	migration z between -2 and 2; enough cells	0.42	3466
LRRN2 (leucine rich repeat neuronal 2)	-0.95	migration z between -2 and 2; enough cells	0.64	3982
BRCA1 (BRCA1 DNA repair associated)	-0.44	migration z between -2 and 2; enough cells	0.72	4316
CLTRN (collectrin, amino acid transport regulator)	-1.48	migration z between -2 and 2; enough cells	0.5	4528
CCDC102B (coiled-coil domain containing 102B)	-0.38	migration z between -2 and 2; enough cells	0.78	5008
GPR21 (G protein-coupled receptor 21)	0.39	migration z between -2 and 2; enough cells	0.88	5694
CDC42BPB (CDC42 binding protein kinase beta)	0.21	migration z between -2 and 2; enough cells	0.84	6032
GADL1 (GAD like acidic amino acid decarboxylase 1)	0.2	migration z between -2 and 2; enough cells	0.84	6274
RDH12 (retinol dehydrogenase 12)	1.32	migration z between -2 and 2; enough cells	1.06	6392

Further results follow.
no.	gene	migration robust z-score	migration class with cell-count check	migration relative to mock	nuclei per well, duplicate mean
25	UGP2 (UDP-glucose pyrophosphorylase 2)	-0.7	migration z between -2 and 2; enough cells	0.67	5834
26	CFAP206 (cilia and flagella associated protein 206)	0.92	migration z between -2 and 2; enough cells	1.12	5766
27	LBR (lamin B receptor)	1.92	migration z between -2 and 2; enough cells	1.17	6168
28	AKAP10 (A-kinase anchoring protein 10)	1.97	migration z between -2 and 2; enough cells	1.19	5615
29	PROC (protein C, inactivator of coagulation factors Va and VIIIa)	-0.62	migration z between -2 and 2; enough cells	0.68	3832
30	VASH2 (vasohibin 2)	0.92	migration z between -2 and 2; enough cells	1.12	6020
31	FN1 (fibronectin 1)	-0.57	migration z between -2 and 2; enough cells	0.7	5983
32	SPPL2C (signal peptide peptidase like 2C)	-0.05	migration z between -2 and 2; enough cells	0.8	5248
33	NNMT (nicotinamide N-methyltransferase)	-1.5	migration z between -2 and 2; enough cells	0.52	5216
34	ABCC5 (ATP binding cassette subfamily C member 5)	1.17	migration z between -2 and 2; enough cells	1.03	5562
35	FREM2 (FRAS1 related extracellular matrix 2)	0.02	migration z between -2 and 2; enough cells	0.89	6425
36	HDAC11 (histone deacetylase 11)	0.52	migration z between -2 and 2; enough cells	0.9	5992
37	RPL11 (ribosomal protein L11)	-1.79	migration z between -2 and 2; enough cells	0.42	5084
38	KCNK1 (potassium two pore domain channel subfamily K member 1)	-2.05 (active)	migration z below -2; enough cells	0.41	3804
39	CCDC61 (coiled-coil domain containing 61)	0.05	migration z between -2 and 2; enough cells	0.9	6512
40	MAPK13 (mitogen-activated protein kinase 13)	-0.38	migration z between -2 and 2; enough cells	0.73	4426
41	CCDC138 (coiled-coil domain containing 138)	-0.45	migration z between -2 and 2; enough cells	0.77	6266
42	ALKBH5 (alkB homolog 5, RNA demethylase)	-0.08	migration z between -2 and 2; enough cells	0.86	4698
43	CC2D1A (coiled-coil and C2 domain containing 1A)	-0.34	migration z between -2 and 2; enough cells	0.8	6446
44	CXCR5 (C-X-C motif chemokine receptor 5)	0.52	migration z between -2 and 2; enough cells	0.9	6454
45	CAD	0.08	migration z between -2 and 2; enough cells	0.82	6031
46	UGT2B28 (UDP glucuronosyltransferase family 2 member B28)	0.24	migration z between -2 and 2; enough cells	0.85	4720
47	MRPS34 (mitochondrial ribosomal protein S34)	0.96	migration z between -2 and 2; enough cells	1.14	6584
48	SNTN (sentan, cilia apical structure protein)	-0.62	migration z between -2 and 2; enough cells	0.72	6326
49	MARCHF7 (membrane associated ring-CH-type finger 7)	-0.47	migration z between -2 and 2; enough cells	0.72	6200
50	TMEM252 (transmembrane protein 252)	0.04	migration z between -2 and 2; enough cells	0.9	5512
51	GOLGA4 (golgin A4)	0.32	migration z between -2 and 2; enough cells	0.97	5892
52	YIPF5 (Yip1 domain family member 5)	-0.11	migration z between -2 and 2; enough cells	0.86	6762
53	ABHD13 (abhydrolase domain containing 13)	0.78	migration z between -2 and 2; enough cells	0.96	6188
54	HLA-DOA (major histocompatibility complex, class II, DO alpha)	1.2	migration z between -2 and 2; enough cells	1.04	6677
55	CRMA (cardiomyocyte maturation associated lncRNA)	-2.34 (active)	migration z below -2; enough cells	0.28	5270
56	PCMTD2	1.77	migration z between -2 and 2; enough cells	1.15	6066
57	PEX1 (peroxisomal biogenesis factor 1)	0.6	migration z between -2 and 2; enough cells	0.92	5900
